Test results reported in PMC13086964, “USP7 deubiquitinase stabilizes FAN1 to support DNA crosslink repair and suppress CAG repeat expansion” (Nature Communications, 2026).
No constants are given. Whether binding was seen depends on the method and setting. Binding seen in cells or lysates may run through a third protein. A yes stands for co-enrichment or nearness to the bait. Other partners may have been found.

Amino acid sequences for entries named in this document (tags omitted).
UniProt Q9Y2M0: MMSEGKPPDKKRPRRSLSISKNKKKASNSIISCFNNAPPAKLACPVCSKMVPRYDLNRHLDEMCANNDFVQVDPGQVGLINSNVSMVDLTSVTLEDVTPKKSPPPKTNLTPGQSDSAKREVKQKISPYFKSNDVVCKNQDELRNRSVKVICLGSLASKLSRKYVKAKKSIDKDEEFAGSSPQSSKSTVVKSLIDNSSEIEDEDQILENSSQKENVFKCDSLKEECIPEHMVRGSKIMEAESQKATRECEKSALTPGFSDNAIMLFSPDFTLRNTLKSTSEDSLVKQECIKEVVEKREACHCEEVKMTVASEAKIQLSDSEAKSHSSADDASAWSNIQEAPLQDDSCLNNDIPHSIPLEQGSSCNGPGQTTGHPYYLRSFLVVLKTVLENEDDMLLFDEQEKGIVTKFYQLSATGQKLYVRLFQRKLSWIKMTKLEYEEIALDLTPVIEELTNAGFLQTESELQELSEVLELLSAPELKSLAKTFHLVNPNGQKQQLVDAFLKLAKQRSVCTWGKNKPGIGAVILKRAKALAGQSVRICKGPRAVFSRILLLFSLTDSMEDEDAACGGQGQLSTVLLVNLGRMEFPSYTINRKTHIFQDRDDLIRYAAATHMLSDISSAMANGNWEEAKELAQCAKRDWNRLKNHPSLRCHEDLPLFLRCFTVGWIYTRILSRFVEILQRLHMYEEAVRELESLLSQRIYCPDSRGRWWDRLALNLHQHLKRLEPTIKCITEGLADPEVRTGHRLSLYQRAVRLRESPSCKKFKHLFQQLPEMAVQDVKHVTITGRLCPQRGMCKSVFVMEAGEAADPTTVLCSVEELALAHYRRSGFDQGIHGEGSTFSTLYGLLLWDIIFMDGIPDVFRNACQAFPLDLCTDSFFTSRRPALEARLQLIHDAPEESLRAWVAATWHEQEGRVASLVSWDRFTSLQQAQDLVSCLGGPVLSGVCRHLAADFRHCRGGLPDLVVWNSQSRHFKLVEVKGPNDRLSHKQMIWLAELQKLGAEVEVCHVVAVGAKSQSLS
UniProt Q9NVI1: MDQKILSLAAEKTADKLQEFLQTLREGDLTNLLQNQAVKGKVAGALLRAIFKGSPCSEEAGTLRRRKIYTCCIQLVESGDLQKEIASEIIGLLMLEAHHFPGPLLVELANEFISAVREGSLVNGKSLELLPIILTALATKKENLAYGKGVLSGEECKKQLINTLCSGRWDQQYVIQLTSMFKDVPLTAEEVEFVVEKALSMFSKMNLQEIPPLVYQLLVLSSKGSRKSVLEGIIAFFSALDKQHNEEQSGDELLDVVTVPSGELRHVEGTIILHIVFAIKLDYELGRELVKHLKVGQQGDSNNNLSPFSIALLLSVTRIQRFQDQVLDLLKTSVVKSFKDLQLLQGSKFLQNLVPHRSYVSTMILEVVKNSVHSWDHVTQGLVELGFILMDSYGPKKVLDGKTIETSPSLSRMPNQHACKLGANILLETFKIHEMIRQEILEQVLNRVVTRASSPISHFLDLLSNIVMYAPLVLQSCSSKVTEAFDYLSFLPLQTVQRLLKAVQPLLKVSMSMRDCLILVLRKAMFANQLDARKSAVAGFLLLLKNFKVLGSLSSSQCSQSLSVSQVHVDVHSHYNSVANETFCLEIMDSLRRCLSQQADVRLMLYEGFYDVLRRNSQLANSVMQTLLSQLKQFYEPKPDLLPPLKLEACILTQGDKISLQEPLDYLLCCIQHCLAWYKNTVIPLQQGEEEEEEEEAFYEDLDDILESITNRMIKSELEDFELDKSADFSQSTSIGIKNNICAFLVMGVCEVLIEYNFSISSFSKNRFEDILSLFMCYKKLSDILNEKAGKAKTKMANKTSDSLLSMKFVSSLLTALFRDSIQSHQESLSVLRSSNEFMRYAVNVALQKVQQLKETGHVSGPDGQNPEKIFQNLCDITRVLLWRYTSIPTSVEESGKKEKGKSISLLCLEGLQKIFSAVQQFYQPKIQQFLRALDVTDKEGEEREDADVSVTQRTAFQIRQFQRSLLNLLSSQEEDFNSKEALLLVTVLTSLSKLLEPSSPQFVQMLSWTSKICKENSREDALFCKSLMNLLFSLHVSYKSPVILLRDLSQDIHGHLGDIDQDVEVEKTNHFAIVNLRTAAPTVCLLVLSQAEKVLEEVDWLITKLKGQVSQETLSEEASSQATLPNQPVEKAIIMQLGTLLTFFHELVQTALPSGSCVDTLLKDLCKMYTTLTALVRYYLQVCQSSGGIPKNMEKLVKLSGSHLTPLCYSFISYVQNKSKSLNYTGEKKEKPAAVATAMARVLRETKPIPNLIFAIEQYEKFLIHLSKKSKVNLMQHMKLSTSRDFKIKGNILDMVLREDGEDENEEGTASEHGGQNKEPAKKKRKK
UniProt Q93009: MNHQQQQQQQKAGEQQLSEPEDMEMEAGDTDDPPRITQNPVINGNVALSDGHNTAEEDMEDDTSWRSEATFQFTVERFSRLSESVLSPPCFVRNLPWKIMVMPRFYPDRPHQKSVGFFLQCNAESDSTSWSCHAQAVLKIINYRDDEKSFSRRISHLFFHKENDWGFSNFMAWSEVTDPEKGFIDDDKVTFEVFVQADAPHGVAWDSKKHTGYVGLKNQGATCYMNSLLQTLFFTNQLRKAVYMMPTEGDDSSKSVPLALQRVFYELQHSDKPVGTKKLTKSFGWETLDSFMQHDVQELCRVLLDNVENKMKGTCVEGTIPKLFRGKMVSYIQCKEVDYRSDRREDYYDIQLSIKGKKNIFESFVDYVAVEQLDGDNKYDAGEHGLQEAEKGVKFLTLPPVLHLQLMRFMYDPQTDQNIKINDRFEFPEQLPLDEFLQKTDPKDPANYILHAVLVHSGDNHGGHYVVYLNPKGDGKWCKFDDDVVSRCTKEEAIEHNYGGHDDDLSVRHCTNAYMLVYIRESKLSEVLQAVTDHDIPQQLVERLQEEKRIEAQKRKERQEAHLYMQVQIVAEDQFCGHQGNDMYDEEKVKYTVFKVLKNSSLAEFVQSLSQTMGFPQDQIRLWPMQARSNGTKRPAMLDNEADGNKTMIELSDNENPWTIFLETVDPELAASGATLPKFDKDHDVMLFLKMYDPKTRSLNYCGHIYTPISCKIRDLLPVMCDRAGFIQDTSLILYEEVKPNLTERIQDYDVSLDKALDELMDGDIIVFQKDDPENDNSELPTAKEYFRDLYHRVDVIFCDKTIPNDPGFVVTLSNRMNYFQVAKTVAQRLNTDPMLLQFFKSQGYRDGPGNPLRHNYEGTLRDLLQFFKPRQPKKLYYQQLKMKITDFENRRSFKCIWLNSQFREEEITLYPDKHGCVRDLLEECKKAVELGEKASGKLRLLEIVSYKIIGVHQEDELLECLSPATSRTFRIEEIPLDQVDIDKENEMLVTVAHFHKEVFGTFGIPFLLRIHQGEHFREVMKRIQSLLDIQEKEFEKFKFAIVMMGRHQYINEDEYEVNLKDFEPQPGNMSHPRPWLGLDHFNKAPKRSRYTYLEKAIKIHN
UniProt Q93008: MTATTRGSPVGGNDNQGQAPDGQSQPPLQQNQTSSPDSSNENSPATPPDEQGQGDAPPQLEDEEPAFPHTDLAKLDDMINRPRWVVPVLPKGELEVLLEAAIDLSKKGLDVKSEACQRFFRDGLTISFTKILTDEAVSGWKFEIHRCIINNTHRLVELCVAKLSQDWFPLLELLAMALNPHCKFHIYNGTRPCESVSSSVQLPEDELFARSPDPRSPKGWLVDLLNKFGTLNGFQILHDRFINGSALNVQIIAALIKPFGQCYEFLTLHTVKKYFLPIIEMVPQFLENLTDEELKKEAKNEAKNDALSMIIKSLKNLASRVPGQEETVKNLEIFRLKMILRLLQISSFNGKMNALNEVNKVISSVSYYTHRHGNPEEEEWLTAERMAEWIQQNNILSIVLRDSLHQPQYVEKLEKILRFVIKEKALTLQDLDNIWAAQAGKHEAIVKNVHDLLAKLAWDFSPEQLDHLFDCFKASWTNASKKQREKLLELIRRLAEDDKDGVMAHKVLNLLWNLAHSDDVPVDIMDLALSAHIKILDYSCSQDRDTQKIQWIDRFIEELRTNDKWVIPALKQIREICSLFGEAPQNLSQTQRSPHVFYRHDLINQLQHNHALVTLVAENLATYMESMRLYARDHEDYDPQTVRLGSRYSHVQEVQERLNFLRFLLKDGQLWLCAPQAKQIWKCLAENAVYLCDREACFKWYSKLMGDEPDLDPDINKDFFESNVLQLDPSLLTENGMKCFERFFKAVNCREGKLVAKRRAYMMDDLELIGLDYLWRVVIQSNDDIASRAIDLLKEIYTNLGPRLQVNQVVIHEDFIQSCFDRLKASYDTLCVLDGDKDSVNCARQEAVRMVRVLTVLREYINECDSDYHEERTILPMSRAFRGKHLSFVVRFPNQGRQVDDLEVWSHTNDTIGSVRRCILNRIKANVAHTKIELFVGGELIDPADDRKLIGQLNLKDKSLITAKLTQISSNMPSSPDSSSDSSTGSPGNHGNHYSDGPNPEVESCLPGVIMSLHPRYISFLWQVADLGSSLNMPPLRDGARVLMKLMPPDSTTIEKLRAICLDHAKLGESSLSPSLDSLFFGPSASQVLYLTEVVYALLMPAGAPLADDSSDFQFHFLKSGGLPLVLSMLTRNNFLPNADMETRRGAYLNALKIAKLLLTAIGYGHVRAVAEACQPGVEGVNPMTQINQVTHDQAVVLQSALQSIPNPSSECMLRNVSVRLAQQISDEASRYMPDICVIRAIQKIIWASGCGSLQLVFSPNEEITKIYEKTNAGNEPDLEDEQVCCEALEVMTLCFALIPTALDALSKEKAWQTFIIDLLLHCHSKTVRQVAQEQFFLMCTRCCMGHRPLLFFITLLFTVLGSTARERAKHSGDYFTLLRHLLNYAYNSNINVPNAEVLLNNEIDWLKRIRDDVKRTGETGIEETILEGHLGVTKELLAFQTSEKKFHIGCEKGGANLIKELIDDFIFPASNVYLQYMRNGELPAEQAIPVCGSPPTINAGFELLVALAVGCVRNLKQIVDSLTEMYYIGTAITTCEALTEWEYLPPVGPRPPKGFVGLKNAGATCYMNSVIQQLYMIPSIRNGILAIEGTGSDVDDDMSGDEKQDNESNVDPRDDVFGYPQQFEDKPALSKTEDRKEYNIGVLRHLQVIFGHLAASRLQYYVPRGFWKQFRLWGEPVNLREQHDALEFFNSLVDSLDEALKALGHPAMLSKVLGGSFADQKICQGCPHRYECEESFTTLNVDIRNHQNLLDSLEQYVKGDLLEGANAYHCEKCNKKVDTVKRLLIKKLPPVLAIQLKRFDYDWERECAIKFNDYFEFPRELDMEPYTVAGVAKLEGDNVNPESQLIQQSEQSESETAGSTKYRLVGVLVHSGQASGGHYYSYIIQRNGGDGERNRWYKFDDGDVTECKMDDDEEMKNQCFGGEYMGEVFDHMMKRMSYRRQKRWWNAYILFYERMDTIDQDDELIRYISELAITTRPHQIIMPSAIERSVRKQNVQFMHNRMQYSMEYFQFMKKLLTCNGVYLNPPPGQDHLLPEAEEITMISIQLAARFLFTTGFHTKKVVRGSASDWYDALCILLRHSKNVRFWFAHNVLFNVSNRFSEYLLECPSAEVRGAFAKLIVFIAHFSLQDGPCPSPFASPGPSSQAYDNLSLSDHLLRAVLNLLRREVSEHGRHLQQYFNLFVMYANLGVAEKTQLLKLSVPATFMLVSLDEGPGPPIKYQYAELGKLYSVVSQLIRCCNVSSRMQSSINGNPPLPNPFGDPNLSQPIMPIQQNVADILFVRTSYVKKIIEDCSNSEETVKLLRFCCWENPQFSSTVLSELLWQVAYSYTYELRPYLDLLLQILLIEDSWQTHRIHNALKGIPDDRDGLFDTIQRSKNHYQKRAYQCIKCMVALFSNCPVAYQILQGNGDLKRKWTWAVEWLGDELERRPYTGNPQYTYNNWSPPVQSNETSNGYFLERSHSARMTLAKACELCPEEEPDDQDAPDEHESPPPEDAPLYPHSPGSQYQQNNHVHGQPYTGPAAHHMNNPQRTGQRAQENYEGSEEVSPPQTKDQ

Biological target: GFP-FAN1 wild-type (wt), full-length (human) (UniProt Q9Y2M0)
Experiment: affinity purification with mass spectrometry; GFP-Trap agarose on nuclei-enriched, Benzonase-treated lysates of HEK293 Flp-In T-REx eGFP-FAN1 cells (parental HEK293 as control); IP buffer 50 mM Tris-HCl pH 7.5, 100 mM NaCl, 0.1% NP40; 1 h, 4 °C; LC-MS/MS, n = 3

binding | Substance
binds | FANCI (from UniProt Q9NVI1 1-1328)
binds | endogenous USP7 (HEK293 cells) (from UniProt Q93009 1-1102) (enzyme)
binds | endogenous USP9X (HEK293 cells) (from UniProt Q93008 1-2554) (enzyme)
